SMILES strings stand for the structures. Structures were worked out from names or drawings and are uncertain.

Amino acid sequences for entries named in this document (tags omitted). Residues count along the entry.
UniProt P03952, 391-638 limits assumed: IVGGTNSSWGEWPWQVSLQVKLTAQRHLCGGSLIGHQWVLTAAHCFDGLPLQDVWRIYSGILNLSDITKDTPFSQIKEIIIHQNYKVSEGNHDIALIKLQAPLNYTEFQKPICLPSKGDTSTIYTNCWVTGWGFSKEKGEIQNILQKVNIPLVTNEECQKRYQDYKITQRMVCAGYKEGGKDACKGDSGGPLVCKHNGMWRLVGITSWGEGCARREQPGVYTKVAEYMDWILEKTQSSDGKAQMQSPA
UniProt P03952, 20-390 partner limits assumed: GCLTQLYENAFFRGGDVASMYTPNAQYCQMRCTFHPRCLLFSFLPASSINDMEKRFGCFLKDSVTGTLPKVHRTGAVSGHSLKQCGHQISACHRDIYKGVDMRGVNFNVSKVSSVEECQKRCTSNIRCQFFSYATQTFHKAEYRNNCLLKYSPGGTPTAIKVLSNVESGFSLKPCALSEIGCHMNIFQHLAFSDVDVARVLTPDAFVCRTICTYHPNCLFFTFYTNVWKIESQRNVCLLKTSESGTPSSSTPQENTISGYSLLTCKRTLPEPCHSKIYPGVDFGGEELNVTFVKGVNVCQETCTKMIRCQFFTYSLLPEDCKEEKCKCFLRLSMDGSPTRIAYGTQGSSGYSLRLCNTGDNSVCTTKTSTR

This test concerns the target human plasma kallikrein (Homo sapiens, UniProt P03952). As to the kind of experiment: Kallikrein inhibition FLINT assay with quenched AMC peptide substrate Z-Gly-Pro-Arg-AMC (end point EP or kinetic KIN reads). The class given is biochemical. The settings on record: read-out: Kallikrein (KIN) IC50; kinetic reads at 5 min intervals over 30 min.
As to `[O-][n+]1cc(-c2c(-n3cnnn3)ccc(Cl)c2F)ccc1C(Cn1ccc(-c2ccc(F)cn2)n1)n1cc(-c2ccnc(C(F)(F)F)c2)cn1` (single isomer, unassigned) [P522], the IC50 stood at 141 nM.

Consider `COc1cc(C(CC2CC2)n2cc(-c3ccn(C)c(=O)c3)cn2)[n+]([O-])cc1-c1c(-n2cnnn2)ccc(Cl)c1F` (stereo not drawn), for which the IC50 is 6 nM.

In the case of `COc1cc(C(CC2CC2)n2cc(-c3ccc(NC(C)=O)nc3F)cn2)[n+]([O-])cc1-c1c(-n2cnnn2)ccc(Cl)c1F` (stereo not drawn), the IC50 was 7.3 nM.

Take `[O-][n+]1ccc(-c2cnn(C(CCOC(F)F)c3ccc(-c4c(-n5cnnn5)ccc(Cl)c4F)c[n+]3[O-])c2)nc1` (stereo not drawn): the IC50 is 126 nM.

Regarding `[O-][n+]1cc(-c2c(-n3cnnn3)ccc(Cl)c2F)ccc1C(Cn1ccc(-c2ccc(F)cn2)n1)n1cc(-c2ccnc(C(F)(F)F)c2)cn1` (single isomer, unassigned) [P523], the IC50 is 259 nM.

Turning to `CN(CC(c1ccc(-c2c(-n3cnnn3)ccc(Cl)c2F)c[n+]1[O-])n1cc(-c2ccncc2)cn1)C(=O)CCC(=O)N1CCCCC1` (stereo not drawn), the IC50 came out at 24.2 nM.

By IC50 is commonly meant the concentration at which inhibition is half-maximal.
